The list shows a part of the results.
Key:
Test in all cases: log2 fold change, soluble protein after heating vs DMSO (PISA); higher = thermal stabilisation; K562 cells, 10 uM, 30 min; active = over 0.2 and 3.5 SD of the protein, either way, in both replicates (recomputed)
[1] = compound: CC[C@@H]1C(=O)N(C)c2cnc(Nc3ccc(C(=O)NC4CCN(C)CC4)cc3OC)nc2N1C1CCCC1
How it was run: (§1)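 Soluble protein was quantified by TMTpro 16plex LC-MS/MS after channel sums were equalised. It was obtained as the supernatant after 21,000xg for 90 min from pooled aliquots of K562 cells (2×10^6 cells/mL, 10 μM compound, 30 min) heated for 3 min across 48°C-58°C and extracted in PBS with 0.5% NP-40 at 4°C. Thermal stability values are relative to control samples and come from duplicates. They are given as log2 fold changes.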

Amino acid sequences for entries named in this document (tags omitted). A change or cut given only in a name is not applied to a line headed by its entry.
UniProt Q7Z309: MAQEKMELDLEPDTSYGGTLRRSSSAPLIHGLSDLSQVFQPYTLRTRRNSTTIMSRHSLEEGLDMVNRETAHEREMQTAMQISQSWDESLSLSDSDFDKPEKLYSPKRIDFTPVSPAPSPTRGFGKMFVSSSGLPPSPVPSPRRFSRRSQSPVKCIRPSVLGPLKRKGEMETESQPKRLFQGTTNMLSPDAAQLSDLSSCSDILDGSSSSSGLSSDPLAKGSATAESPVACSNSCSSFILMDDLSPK
UniProt Q9BYI3: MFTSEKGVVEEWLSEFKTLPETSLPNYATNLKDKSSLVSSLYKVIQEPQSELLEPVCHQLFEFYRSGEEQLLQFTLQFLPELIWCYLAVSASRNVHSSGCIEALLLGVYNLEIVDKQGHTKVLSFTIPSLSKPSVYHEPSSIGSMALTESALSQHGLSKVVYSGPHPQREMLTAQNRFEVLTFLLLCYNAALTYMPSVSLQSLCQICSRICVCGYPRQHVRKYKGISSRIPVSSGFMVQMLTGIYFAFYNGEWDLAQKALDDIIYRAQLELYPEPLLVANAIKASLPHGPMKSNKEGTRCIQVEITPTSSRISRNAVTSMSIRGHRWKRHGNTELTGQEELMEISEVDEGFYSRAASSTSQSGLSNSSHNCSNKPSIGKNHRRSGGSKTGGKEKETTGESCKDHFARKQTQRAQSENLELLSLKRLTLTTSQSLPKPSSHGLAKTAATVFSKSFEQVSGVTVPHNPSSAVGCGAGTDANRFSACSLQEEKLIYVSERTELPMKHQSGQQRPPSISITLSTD
UniProt Q6NZ36: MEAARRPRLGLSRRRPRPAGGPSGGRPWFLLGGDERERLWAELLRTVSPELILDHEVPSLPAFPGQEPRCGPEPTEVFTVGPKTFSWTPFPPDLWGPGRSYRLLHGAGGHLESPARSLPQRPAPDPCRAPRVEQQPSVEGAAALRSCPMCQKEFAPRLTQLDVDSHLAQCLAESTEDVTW
UniProt Q96PV7: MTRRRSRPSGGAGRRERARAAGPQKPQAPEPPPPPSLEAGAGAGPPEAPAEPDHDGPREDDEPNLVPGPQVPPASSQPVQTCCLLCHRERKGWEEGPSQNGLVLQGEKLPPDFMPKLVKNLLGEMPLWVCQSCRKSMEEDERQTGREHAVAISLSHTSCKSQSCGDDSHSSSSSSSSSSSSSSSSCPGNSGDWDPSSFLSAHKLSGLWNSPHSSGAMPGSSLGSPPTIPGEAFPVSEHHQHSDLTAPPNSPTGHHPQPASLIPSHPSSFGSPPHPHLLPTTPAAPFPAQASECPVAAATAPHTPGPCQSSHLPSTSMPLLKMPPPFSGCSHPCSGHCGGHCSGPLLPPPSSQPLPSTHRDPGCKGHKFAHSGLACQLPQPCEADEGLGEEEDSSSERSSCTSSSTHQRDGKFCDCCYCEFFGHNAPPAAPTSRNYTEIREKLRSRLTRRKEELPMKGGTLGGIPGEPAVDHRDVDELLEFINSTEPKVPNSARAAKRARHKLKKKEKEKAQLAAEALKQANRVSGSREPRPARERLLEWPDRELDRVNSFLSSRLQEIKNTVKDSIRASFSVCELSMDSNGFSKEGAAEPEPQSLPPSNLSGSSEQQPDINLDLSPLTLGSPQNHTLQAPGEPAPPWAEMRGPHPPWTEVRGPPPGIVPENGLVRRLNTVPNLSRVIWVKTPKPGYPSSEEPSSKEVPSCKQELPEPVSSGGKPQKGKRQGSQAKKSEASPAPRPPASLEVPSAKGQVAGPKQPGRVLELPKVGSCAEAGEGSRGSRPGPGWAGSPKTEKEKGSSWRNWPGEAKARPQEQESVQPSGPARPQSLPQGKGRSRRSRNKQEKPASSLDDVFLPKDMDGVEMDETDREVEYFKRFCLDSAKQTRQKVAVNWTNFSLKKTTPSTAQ
UniProt P00740, whole entry, looked up: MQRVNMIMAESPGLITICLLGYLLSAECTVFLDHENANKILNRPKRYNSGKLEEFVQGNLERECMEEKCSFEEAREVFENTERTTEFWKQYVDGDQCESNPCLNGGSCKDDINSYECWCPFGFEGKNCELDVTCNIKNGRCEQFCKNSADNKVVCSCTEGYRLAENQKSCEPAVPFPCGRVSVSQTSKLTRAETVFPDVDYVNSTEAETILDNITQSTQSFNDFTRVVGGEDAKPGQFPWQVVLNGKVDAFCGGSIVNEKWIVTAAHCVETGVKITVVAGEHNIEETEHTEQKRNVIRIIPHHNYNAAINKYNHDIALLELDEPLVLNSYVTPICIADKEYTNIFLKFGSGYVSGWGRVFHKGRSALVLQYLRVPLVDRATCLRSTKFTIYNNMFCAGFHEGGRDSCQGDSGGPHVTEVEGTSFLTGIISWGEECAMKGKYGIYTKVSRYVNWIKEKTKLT
UniProt Q9BPY3: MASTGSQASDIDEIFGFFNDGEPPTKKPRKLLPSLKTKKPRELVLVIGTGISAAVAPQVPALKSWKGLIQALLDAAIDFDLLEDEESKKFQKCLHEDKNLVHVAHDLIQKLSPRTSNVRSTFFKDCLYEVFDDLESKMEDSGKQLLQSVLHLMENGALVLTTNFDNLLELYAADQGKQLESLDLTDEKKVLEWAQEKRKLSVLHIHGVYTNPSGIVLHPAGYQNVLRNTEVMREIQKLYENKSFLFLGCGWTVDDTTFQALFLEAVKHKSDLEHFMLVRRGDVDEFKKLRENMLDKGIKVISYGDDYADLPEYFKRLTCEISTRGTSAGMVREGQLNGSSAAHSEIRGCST
UniProt O75460: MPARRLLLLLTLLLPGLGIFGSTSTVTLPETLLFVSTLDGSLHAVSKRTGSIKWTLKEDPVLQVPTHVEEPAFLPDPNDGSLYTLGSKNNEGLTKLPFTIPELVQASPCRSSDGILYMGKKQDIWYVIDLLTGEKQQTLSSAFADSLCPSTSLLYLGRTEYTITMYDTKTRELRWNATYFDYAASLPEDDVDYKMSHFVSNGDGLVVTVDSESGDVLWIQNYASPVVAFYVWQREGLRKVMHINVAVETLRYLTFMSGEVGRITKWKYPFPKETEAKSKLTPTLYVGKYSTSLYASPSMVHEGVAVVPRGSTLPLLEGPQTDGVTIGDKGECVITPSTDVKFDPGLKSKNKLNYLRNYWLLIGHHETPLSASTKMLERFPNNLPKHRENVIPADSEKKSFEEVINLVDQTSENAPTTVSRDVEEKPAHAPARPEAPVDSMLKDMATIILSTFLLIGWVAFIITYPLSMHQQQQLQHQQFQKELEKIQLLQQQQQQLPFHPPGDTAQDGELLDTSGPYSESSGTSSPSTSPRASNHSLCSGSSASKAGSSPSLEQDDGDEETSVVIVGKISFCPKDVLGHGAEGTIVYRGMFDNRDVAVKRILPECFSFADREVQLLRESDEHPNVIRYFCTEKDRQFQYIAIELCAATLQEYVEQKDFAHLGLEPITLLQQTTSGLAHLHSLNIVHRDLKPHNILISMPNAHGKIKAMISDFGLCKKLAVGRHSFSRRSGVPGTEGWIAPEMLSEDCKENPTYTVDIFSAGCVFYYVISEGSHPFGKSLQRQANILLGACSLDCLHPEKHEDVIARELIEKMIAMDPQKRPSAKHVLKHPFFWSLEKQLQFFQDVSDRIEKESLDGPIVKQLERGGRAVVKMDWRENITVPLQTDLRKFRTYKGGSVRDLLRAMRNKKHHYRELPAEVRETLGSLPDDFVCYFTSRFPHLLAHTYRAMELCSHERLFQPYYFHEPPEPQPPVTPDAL
UniProt O95718: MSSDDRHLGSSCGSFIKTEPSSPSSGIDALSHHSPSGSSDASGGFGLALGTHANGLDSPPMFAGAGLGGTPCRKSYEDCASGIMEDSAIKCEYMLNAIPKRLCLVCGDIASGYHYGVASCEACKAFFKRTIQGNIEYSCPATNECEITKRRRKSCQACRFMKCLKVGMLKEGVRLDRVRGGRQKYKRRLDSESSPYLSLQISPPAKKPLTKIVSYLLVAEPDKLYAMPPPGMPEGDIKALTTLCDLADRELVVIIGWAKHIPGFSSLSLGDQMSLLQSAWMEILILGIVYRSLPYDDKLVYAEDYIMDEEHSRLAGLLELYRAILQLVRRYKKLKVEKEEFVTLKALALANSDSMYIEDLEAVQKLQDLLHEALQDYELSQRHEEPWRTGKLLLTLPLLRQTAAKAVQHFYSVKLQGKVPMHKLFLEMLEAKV
UniProt Q9P2D6: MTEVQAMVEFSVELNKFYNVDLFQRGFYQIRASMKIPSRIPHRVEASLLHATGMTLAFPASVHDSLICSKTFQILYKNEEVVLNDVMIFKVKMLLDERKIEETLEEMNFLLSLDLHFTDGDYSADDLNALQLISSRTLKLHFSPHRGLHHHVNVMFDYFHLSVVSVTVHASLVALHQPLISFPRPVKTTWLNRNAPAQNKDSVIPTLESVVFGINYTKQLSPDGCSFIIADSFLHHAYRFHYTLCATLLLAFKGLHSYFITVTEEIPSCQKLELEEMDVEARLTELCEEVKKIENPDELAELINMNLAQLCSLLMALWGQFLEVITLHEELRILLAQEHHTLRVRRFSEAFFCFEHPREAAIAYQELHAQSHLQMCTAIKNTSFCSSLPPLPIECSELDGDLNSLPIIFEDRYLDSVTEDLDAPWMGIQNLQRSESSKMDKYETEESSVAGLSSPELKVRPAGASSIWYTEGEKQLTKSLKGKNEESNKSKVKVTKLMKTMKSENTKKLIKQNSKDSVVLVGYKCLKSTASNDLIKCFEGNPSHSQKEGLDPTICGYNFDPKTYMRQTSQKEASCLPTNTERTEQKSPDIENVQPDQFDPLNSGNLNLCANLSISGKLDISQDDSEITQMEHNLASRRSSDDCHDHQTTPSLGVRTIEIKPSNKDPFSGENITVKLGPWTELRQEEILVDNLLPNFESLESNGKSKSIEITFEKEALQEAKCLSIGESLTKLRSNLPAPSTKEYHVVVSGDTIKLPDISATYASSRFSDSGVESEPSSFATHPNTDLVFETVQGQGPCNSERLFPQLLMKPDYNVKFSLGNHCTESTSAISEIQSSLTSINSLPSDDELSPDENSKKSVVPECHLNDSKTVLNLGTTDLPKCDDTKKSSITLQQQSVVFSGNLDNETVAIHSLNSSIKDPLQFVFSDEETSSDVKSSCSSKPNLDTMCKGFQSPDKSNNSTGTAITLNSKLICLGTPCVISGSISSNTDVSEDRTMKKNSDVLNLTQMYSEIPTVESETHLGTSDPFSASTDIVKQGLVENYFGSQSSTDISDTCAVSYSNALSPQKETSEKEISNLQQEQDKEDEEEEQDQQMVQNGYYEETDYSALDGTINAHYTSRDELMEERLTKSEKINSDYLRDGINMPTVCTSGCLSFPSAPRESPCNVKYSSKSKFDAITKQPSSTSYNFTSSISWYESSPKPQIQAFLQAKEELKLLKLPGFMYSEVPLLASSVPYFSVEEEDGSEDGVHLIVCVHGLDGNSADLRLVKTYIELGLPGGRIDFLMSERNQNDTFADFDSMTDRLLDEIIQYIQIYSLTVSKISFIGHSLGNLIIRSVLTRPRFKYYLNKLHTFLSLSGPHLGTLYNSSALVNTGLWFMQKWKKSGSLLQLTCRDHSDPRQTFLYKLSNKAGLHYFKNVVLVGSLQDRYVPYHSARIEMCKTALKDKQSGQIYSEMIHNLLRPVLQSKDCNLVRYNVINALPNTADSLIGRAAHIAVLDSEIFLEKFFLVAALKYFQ
UniProt Q8TE68: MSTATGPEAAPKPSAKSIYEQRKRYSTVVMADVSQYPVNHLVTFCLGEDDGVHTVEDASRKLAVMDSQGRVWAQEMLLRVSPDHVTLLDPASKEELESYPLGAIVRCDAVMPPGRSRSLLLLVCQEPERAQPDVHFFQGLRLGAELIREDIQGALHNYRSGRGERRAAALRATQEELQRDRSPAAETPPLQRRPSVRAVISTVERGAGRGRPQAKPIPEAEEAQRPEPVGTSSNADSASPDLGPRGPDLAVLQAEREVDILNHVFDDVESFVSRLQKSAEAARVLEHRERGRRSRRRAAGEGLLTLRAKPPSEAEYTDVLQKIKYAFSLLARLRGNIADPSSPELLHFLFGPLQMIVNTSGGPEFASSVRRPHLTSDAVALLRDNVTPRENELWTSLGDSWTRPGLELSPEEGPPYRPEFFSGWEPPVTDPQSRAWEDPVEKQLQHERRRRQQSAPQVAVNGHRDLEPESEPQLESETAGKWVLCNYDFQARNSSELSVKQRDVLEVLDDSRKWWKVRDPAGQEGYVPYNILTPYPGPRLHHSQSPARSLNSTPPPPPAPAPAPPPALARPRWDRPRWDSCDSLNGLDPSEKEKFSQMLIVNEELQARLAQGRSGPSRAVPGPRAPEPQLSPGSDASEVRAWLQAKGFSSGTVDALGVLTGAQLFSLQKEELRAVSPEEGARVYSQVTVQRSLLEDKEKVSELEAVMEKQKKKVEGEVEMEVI

[2] = compound: CN1CC[C@H](c2c(O)cc(O)c3c(=O)cc(-c4ccccc4Cl)oc23)[C@H](O)C1 [alvocidib]
How it was run: as §1

[3] = compound: CNCc1ccc(-c2[nH]c3cc(F)cc4c3c2CCNC4=O)cc1 [rucaparib]
How it was run: as §1

[4] = compound: COC(=O)N[C@@H](C)CNc1nccc(-c2cn(C(C)C)nc2-c2cc(Cl)cc(NS(C)(=O)=O)c2F)n1 [encorafenib]
How it was run: as §1

[5] = compound: CC[C@H](C)[C@@H](C(=O)N[C@@H]([C@@H](C)O)C(=O)N[C@@H](CC(C)C)C(=O)[C@]1(CO1)C)NC(=O)[C@H]([C@@H](C)CC)N(C)C(=O)C [epoxomicin]
How it was run: as §1

[6] = compound: CCn1c(C(=O)N(C2CC2)C2CC2)cc2c3c(ncn3C)c(Nc3cc(C)n(C)n3)nc21
How it was run: as §1

[7] = compound: CNC(=O)C1=CC=CC=C1NC2=NC(=NC=C2Cl)NC3=C(C=C(C=C3)N4CCOCC4)OC
How it was run: as §1

[8] = compound: CCn1cc(-c2ccnc3[nH]c(-c4cccc(CN(C)C)c4)cc23)c(-c2ccc(NC(=O)N(C)C)cc2)n1
How it was run: as §1

[9] = compound: CN1CCC(CNc2ccc3ncc(-c4cccc(OC(F)(F)F)c4)n3n2)CC1
How it was run: as §1

[10] = compound: CC[C@H](C)N1C=C(C2=C(C=C(C=C21)C3=CN=C(C=C3)N4CCNCC4)C(=O)NCC5=C(C=C(NC5=O)C)C)C
How it was run: as §1

[11] = compound: CN(C)CC(=O)Nc1ccc2[nH]c(=O)c3ccccc3c2c1
How it was run: as §1

[12] = compound: CN1C2=C(C3=C1C(=O)N(N=C3)CC4=CC(=CC=C4)N)SC(=C2)S(=O)C
How it was run: as §1

[13] = compound: CN1CCN(CCOc2cc(OC3CCOCC3)c3c(Nc4c(Cl)ccc5c4OCO5)ncnc3c2)CC1 [saracatinib]
How it was run: as §1

[14] = compound: CN1CCc2c(c3ccccc3n2Cc2ccc(C(=O)NO)cc2)C1 [Tubastatin A]
How it was run: as §1

[15] = compound: CNC(=O)c1ccc(Nc2ncc(C(F)(F)F)c(NCc3nccnc3N(C)S(C)(=O)=O)n2)cc1 [defactinib]
How it was run: as §1

[16] = compound: CNc1nc(-c2ccc3c(N)n[nH]c3c2)cc(N2C[C@@H](C(=O)NC3CCCCC3)CC[C@H]2C)n1
How it was run: as §1

[17] = compound: COC(=O)[C@H](CCSC)NC(=O)C1=C(C=C(C=C1)NC[C@H](CS)N)C2=CC=CC=C2
How it was run: as §1

[18] = compound: CC[C@@H]1C(=O)N(C)c2cnc(Nc3ccc(C(=O)N[C@H]4CC[C@H](N5CCN(CC6CC6)CC5)CC4)cc3OC)nc2N1C(C)C [volasertib]
How it was run: as §1

[19] = compound: CN1CCN(c2nc(C3=C(c4c[nH]c5ccccc45)C(=O)NC3=O)c3ccccc3n2)CC1 [sotrastaurin]
How it was run: as §1

[20] = compound: CN(CCOC1=CC=C(C=C1)C[C@H]2C(=O)NC(=O)S2)C3=CC=CC=N3 (racemic) [rosiglitazone]
How it was run: as §1

Measured: log2 fold change

FAM122B isoform 2 (UniProt Q7Z309)
inactive: [1] -0.102 | [2] 0.01 | [3] 0.081 | [4] -0.023

FAM126A (UniProt Q9BYI3)
inactive: [1] -0.174 | [5] -0.308 | [6] 0.007 | [7] 0.084 | [3] -0.332 | [4] 0.315

FAM120B (UniProt Q96EK7)
inactive: [1] -0.03 | [6] 0.007 | [8] 0.049 | [9] -0.002 | [7] 0.027 | [3] 0.042 | [4] 0.129

FAAP20 isoform 2 (UniProt Q6NZ36)
inactive: [1] 0.092 | [5] 0.011 | [8] -0.042 | [9] 0.109 | [3] 0.054 | [4] -0.282

FAM160A2 isoform 2 (UniProt Q8N612)
inactive: [1] -0.074 | [10] -0.048 | [5] -0.177 | [8] 0.06 | [11] 0.052 | [12] 0.287 | [9] -0.258 | [13] -0.066 | [14] -0.17 | [15] -0.002 | [3] -0.085 | [16] -0.064 | [4] -0.168 | [17] 0.128

FAM193B (UniProt Q96PV7)
inactive: [1] 0.126 | [18] 0.092 | [5] -0.033 | [11] -0.442 | [12] 0.247 | [13] -0.289 | [19] 0.06 | [14] -0.007 | [15] 0.231 | [3] 0.19 | [16] 0.096 | [4] 0.162 | [17] 0.044

F9 (UniProt P00740)
inactive: [18] 0.162 | [10] 0.147 | [11] 0.071 | [20] 0.054 | [12] 0.188 | [13] 0.301 | [2] 0.019 | [14] -0.008 | [15] -0.078 | [16] 0.2 | [17] 0.317

Reprinted at random: two records from the list, in no set order.
FAM160A2 isoform 2 (UniProt Q8N612)
inactive: [1] -0.074 | [10] -0.048 | [5] -0.177 | [8] 0.06 | [11] 0.052 | [12] 0.287 | [9] -0.258 | [13] -0.066 | [14] -0.17 | [15] -0.002 | [3] -0.085 | [16] -0.064 | [4] -0.168 | [17] 0.128

FAAP20 isoform 2 (UniProt Q6NZ36)
inactive: [1] 0.092 | [5] 0.011 | [8] -0.042 | [9] 0.109 | [3] 0.054 | [4] -0.282

The list goes on:

FADS1, A0A0A0MR51
inactive: [1] 0.022 | [18] -0.148 | [10] 0.036 | [5] 0.024 | [8] -0.002 | [11] -0.007 | [12] -0.119 | [9] -0.041 | [13] 0.013 | [19] -0.061 | [14] 0.15 | [7] 0.112 | [15] -0.022 | [3] 0.005 | [16] 0.027 | [4] 0.004 | [17] 0

FAM118B (UniProt Q9BPY3)
active: [18] -0.445 | [9] -0.373
inactive: [1] -0.087 | [10] 0.035 | [5] 0.036 | [8] -0.067 | [11] 0.11 | [19] -0.02 | [14] 0.019 | [7] 0.088 | [15] -0.113 | [3] 0.041 | [4] 0.029 | [17] -0.037

ERI3 (UniProt H0Y4B0)
inactive: [1] -0.346 | [5] -0.173 | [6] 0.141 | [20] -0.012 | [19] 0.025 | [7] 0.202 | [3] 0.094 | [4] -0.528

F13A1 (UniProt P00488)
inactive: [1] 0.117 | [10] -0.409 | [20] 0.019 | [12] 0.376 | [13] 0.11 | [14] 0.13 | [3] -0.018 | [16] -0.091 | [4] 0.139

ERN1 (UniProt O75460)
inactive: [18] -0.317 | [10] -0.026 | [5] 0.289 | [6] 0.038 | [8] 0.092 | [12] -0.042 | [9] 0.071 | [13] -0.379 | [19] 0.013 | [14] 0.064 | [7] -0.269 | [16] -0.051

EXOSC10 (UniProt Q01780)
inactive: [1] -0.048 | [18] 0.087 | [5] -0.098 | [8] -0.222 | [11] -0.169 | [12] 0.029 | [9] -0.003 | [13] -0.091 | [19] 0.199 | [14] 0.143 | [7] -0.073 | [15] 0.015 | [3] 0.101 | [16] 0.022 | [4] -0.327 | [17] 0.123

ESRRB isoform 1 (UniProt O95718)
inactive: [1] -0.015 | [6] -0.004 | [11] -0.178 | [12] -0.036 | [13] 0.135 | [2] -0.308 | [7] -0.06 | [15] -0.033 | [3] 0.14 | [16] -0.07 | [4] 0.176 | [17] -0.065

FAM135A (UniProt Q9P2D6)
inactive: [10] -0.068 | [5] -0.088 | [11] 0.079 | [19] -0.192 | [7] 0.004 | [15] -0.131 | [17] 0.003

FADS1 (UniProt F5GYH4)
inactive: [11] 0.026 | [14] 0.123 | [15] 0.06 | [17] 0.123

EPS8L1 (UniProt Q8TE68)
inactive: [5] 0.035 | [20] -0.066 | [12] 0.267 | [13] 0.129 | [2] 0.159 | [16] -0.111

EPS15L1 (UniProt M0QY01)
inactive: [5] -0.093 | [11] -0.029 | [19] 0.002 | [15] 0.144 | [17] 0.048
